For two substances, binding results are on record in PMC8170441.

Amino acid sequences for entries named in this document (tags omitted). A change or cut given only in a name is not applied to a line headed by its entry. Chains listed by the source or under a name are the forms on record and can include a tag or linker.
p97-E578Q-Strep (P55072, form named): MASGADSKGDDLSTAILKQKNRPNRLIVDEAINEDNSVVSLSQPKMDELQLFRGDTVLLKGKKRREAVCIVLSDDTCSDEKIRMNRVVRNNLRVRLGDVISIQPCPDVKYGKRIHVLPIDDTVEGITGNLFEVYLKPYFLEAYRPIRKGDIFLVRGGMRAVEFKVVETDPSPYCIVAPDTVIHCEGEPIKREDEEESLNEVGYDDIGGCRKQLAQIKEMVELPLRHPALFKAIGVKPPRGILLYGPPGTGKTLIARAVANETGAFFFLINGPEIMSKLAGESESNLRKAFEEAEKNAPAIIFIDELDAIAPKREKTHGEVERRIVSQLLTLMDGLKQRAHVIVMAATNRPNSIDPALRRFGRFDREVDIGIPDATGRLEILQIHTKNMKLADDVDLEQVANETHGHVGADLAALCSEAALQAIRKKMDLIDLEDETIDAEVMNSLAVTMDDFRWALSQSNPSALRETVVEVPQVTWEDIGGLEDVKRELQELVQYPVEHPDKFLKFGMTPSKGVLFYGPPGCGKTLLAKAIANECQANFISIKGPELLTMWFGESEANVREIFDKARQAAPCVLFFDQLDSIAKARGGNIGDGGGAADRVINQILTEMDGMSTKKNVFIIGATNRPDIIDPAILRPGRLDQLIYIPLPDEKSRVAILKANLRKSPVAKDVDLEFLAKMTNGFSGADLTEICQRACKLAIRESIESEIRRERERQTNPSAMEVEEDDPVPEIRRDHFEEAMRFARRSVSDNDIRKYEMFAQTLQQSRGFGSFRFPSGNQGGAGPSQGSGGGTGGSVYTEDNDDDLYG
UniProt Q92878: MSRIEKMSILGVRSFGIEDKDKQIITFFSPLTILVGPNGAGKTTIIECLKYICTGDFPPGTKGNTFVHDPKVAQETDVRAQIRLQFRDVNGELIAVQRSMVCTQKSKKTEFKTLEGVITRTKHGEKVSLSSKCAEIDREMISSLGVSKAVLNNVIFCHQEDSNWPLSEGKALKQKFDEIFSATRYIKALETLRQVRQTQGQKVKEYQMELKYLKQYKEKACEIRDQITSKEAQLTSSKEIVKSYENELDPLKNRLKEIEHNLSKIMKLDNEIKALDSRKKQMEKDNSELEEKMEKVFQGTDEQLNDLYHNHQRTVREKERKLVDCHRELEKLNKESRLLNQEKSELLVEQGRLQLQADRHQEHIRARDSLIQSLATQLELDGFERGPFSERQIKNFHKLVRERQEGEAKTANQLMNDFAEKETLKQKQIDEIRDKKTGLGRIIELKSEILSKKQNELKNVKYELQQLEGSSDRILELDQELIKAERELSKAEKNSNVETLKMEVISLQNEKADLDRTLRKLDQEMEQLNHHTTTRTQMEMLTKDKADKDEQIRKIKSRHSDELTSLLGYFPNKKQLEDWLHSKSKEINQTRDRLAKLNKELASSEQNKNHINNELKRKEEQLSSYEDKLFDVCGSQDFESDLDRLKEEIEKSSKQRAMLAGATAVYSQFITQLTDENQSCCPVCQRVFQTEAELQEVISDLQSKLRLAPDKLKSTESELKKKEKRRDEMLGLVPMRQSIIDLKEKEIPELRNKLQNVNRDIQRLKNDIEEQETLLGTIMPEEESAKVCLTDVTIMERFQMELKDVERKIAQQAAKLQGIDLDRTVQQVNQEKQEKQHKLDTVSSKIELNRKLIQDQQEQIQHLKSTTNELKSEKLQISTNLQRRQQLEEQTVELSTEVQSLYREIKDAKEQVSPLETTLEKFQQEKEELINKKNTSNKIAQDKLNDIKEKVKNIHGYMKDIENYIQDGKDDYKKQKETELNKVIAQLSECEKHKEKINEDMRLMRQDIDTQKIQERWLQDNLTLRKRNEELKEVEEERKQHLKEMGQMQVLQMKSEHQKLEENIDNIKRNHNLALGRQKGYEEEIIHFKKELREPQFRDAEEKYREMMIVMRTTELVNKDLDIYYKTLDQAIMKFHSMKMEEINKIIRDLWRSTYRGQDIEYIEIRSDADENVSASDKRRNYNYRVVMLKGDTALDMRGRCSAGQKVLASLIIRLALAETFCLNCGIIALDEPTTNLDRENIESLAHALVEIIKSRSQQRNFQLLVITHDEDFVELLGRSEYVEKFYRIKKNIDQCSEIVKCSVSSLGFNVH

Results are given in words; binding and its absence hold for the method and conditions named. Binding seen in cells or lysates may run through a third protein. Here binding means that the protein was enriched with, or labelled near, the bait; the list need not be complete. For some assays here: Sequences can lack the tags named with a protein.

The target of test [1] is p97-E578Q-Strep (dominant-negative, substrate-trapping p97 variant) (UniProt P55072). The test is described as follows: affinity purification with mass spectrometry; triplex SILAC; DOX-induced p97-E578Q-Strep pulled down with Strep-Tactin beads from benzonase-treated nuclear/chromatin fractions of HEK293 cells after 10 Gy IR, recovery over 8 h.
Test [2] deals with T1, HA-MRE11 (UniProt P49959).
T1 sequence: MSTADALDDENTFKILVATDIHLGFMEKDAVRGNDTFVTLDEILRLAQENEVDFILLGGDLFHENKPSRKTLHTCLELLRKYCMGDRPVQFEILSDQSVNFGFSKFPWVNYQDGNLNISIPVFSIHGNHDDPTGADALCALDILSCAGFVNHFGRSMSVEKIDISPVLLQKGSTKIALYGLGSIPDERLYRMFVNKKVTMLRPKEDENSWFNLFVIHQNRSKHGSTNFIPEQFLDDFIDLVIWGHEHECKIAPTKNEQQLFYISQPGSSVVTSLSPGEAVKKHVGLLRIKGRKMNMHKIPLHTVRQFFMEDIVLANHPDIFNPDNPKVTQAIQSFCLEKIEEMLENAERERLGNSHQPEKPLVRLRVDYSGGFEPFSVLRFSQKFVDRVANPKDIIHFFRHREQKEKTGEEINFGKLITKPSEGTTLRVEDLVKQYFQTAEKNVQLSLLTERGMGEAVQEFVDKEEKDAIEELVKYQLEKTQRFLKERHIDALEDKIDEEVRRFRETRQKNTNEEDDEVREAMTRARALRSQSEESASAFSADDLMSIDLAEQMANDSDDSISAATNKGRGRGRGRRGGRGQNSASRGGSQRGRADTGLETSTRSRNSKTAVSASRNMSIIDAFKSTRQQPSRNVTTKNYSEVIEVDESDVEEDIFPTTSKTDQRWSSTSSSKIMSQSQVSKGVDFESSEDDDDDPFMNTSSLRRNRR
The test is described as follows: affinity purification with mass spectrometry; HA-MRE11 pulled down with HA-conjugated magnetic beads from lysate of transfected T24 cells (5 Gy IR, 4 h recovery); washes with 0.5 M NaCl, elution with HA peptide; MASCOT.

“RAD50 (endogenous, HEK293) (from UniProt Q92878 1-1312)”: the binding result in test [1] is given as “binds”.

Take “p97 (endogenous, T24) (from UniProt P55072 1-806) (enzyme)”: the binding result in test [2] is listed as “binds”.
